Laboratory results reported in publication PMC12808100, “The non-catalytic DNA polymerase ε subunit is an NPF motif recognition protein” (Nature Communications, 2025).

Key:
[1] = system: POLE2 E520A; assay: Proximity labeling MS, POLE2 E520A; conditions: bait POLE2_E520A, spectral count
[2] = system: POLE2 S522A; assay: Proximity labeling MS, POLE2 S522A; conditions: bait POLE2_S522A, spectral count

B1: ABT1 (protein, UniProt Q9ULW3 1-272, looked up)
Activator of basal …: MEAEESEKAATEQEPLEGTEQTLDAEEEQEESEEAACGSKKRVVPGIVYLGHIPPRFRPLHVRNLLSAYGEVGRVFFQAEDRFVRRKKKAAAAAGGKKRSYTKDYTEGWVEFRDKRIAKRVAASLHNTPMGARRRSPFRYDLWNLKYLHRFTWSHLSEHLAFERQVRRQRLRAEVAQAKRETDFYLQSVERGQRFLAADGDPARPDGSWTFAQRPTEQELRARKAARPGGRERARLATAQDKARSNKGLLARIFGAPPPSESMEGPSLVRDS
B1 showed a Spec ([1]; replicate 1) of 14, a Spec ([1]; replicate 2) of 7 and a Spec ([2]; replicate 1) of 12. The Spec ([2]; replicate 2) was 14.
